Experimental data as given in PubChem BioAssay AID1487 (National Center for Advancing Translational Sciences (NCATS), 2009).
The other results are listed elsewhere or left out. These are further read-outs of the screen, such as a control signal, another cell line or another target. No call is given for them. Most of these compounds were active or inconclusive in the main read-out, so they are no random draw. Words in brackets tell the shape of the fitted curve; partial curves, single points and poor fits give uncertain potencies.

Assay: qHTS Assay for Modulators of Lamin A Splicing
Conditions: HeLa LMNA splicing GFP/RFP minigene ratio, 48 h
In short: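 S3 HeLa cells stably expressing lamin A-EGFP splicing minigene plus DsRed2, 600 cells/well, 48 h compound exposure at 37C. Laser-scanning cytometry; analysed as GFP (500-530 nm)/RFP (575-640 nm) total intensity ratio; 0.5% DMSO vehicle.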

[1] = measured here: GFP splicing reporter channel
[2] = measured here: RFP viability control channel

| Structure (SMILES) | AC50 [1] | AC50 [2] |
| --- | --- | --- |
| CC(C)(C)Sc1ccc2nc3c(n2c1)CCCC3 | 15.8 µM [rising, single point] | 31.6 µM [rising, single point] |
| CCCn1c(SCC(=O)NCCc2ccc(Cl)cc2Cl)n[nH]c1=O | 15.8 µM [rising, single point] | – |
| COc1cc(NC(=O)CCc2c(C)n(C)c3cc(-c4ccccc4C)nn3c2=O)cc(OC)c1OC | 2.24 µM [falling, partial curve] | 5.62 µM [falling, single point] |
| COc1cccc(-c2nn(-c3ccccc3)cc2/C=C(\C#N)C(=O)NCCCn2ccnc2)c1 | – | 10 µM [rising, partial curve] |
| CC(C)c1ccc(C2=CC(c3cccc(Cl)c3)n3ncnc3N2)cc1 (stereo not given) | – | 17.8 µM [rising, partial curve, poor fit] |
| O=S(=O)(NCC(Nc1ccccc1)c1ccccc1)c1ccc(Cl)cc1 (stereo not given) | 12.6 µM [falling, partial curve, poor fit] | 17.8 µM [falling, partial curve, poor fit] |
| CCCCCCCCCn1c2c(c(=N)c3c1CCC3)CCCC2 | 15.8 µM [falling, single point] | 35.5 µM [falling, single point] |
| Cc1ccc(C(NC(N)=O)c2ccccc2)cc1 (stereo not given) | – | 35.5 µM [rising, single point] |
| CC(C)CCc1noc(CN2CCC(CCN3CCCC3=O)CC2)n1 | – | 22.4 µM [falling, partial curve, poor fit] |
| CS(=O)(=O)N(CCc1ccccc1)CC(=O)N1CCN(Cc2ccccc2)CC1 | 15.8 µM [rising, single point] | – |
| FC(F)(F)c1nnc2ccc(NCc3cccnc3)nn12 | – | 0.0316 µM [falling, full curve, poor fit] |
| O=C(CCc1ccc(S(=O)(=O)N2CCOCC2)cc1)Nc1ccc(N2CCOCC2)cc1 | 35.5 µM [rising, single point] | – |
| CCCC(C)C(=O)Nc1nc(C)c(-c2csc(Nc3ccccc3OC)n2)s1 (stereo not given) | 8.91 µM [rising, partial curve, poor fit] | 12.6 µM [rising, partial curve] |
| CC(NC(=O)c1ccc2nc(CCc3ccccc3)oc2c1)c1ccccc1 (stereo not given) | – | 0.398 µM [falling, full curve, poor fit] |
| COc1ccc(N2CCN(C(=O)CSc3ccccc3)CC2)cc1 | 15.8 µM [rising, single point] | 20 µM [rising, single point] |
| Cc1onc(-c2ccccc2)c1C(=O)Nc1ccc(-c2nnc3n2CCCCC3)cc1 | – | 11.2 µM [rising, single point] |
| COc1ccc(/C=N/NC(=O)c2cccc([N+](=O)[O-])c2)cc1OS(=O)(=O)c1ccccc1 | 0.891 µM [rising, full curve, poor fit] | 10 µM [rising, partial curve, poor fit] |
| COc1ccc(NC(=O)CN2CCN(CC(=O)Nc3ccccc3Cl)CC2)c(OC)c1 | – | 35.5 µM [rising, single point] |
| Cc1ccc(C)c(NC(=O)CCc2c(C)n(C)c3cc(-c4ccccc4C)nn3c2=O)c1 | 0.316 µM [falling, partial curve, poor fit] | 0.355 µM [falling, full curve, poor fit] |
| COc1ccc2oc3ccc(OC)cc3c(=O)c2c1 | 0.447 µM [rising, full curve, poor fit] | – |
| Cc1[nH]nc(-c2ccc(OCc3cnn(-c4ccccc4)c3)c(C)c2O)c1Oc1ccccc1 | 0.0794 µM [rising, full curve] | – |
| C=CCNc1nc(-c2c(C)nc3sccn23)cs1 | 12.6 µM [rising, single point] | 14.1 µM [rising, partial curve] |
| COc1ccc(NC(=O)CN(C)S(=O)(=O)c2ccc3[nH]c4c(c3c2)CCCC4)cc1OC | 10 µM [falling, partial curve, poor fit] | – |
| O=C(Nc1ccc(N2CCCC2)c(Cl)c1)c1ccco1 | 10 µM [rising, partial curve] | 15.8 µM [rising, single point] |
| O=C(CCC1CCCC1)N1CCN(C(=O)COc2ccccc2)CC1 | – | 35.5 µM [rising, single point] |
| COc1ccc(N=C2SC(C(=O)N3CCN(c4ccc([N+](=O)[O-])cc4)CC3)CC(=O)N2C)cc1 (stereo not given) | 0.01 µM [falling, full curve, poor fit] | 0.0112 µM [falling, full curve] |
| COc1cccc(C(=O)Nc2sc3c(c2C#N)CCN(C(C)=O)C3)c1 | 3.55 µM [rising, partial curve, poor fit] | – |

| Structure (SMILES) | AC50 [1] | AC50 [2] |
| --- | --- | --- |
| Cc1ccc(S(=O)(=O)NC(C)(C)CSc2ccccn2)cc1 | – | 3.16 µM [rising, full curve] |
| COc1cccc(-c2csc(N3CCN(C(=S)Nc4ccccc4C)CC3)n2)c1 | 7.94 µM [falling, partial curve, poor fit] | 11.2 µM [falling, partial curve, poor fit] |
| COc1ccccc1CNc1ncnc2ccc(-c3cccnc3)cc12 | 20 µM [falling, single point] | 14.1 µM [falling, partial curve] |
| CC1(OC(=O)C2CCCC2)C(=O)C=C2C=C(c3ccsc3)N(C3CC3)C=C2C1=O (stereo not given) | 0.000794 µM [rising, full curve, poor fit] | 1.41 µM [rising, partial curve, poor fit] |
| Cc1sc(N)c(C(=O)c2ccccc2Cl)c1C | 20 µM [falling, partial curve] | 0.0631 µM [falling, full curve, poor fit] |
| Cc1ccccc1-n1nnnc1SCC(=O)Nc1ccc(S(=O)(=O)N2CCCC2)cc1 | – | 25.1 µM [rising, single point] |
| CN(C)S(=O)(=O)Nc1ccc(-c2cn3ccsc3n2)cc1 | 0.316 µM [rising, single point] | – |
| CC1CCN(c2oc(-c3ccccc3F)nc2C#N)CC1 | – | 12.6 µM [rising, partial curve, poor fit] |
| CCN(CC)S(=O)(=O)c1ccc(O)c(NC(=O)CN2CCc3ccccc3C2)c1 | 0.0891 µM [falling, full curve, poor fit] | – |
| COc1cc(/C=N/NC(=O)c2sc(N)c(C#N)c2C)cc(Br)c1O | 31.6 µM [rising, single point] | 35.5 µM [rising, single point] |
| CCOC(=O)C1=C(c2ccccc2)NC(SCC(=O)Nc2cccc(C)c2)=C(C#N)C1c1ccco1 (stereo not given) | – | 35.5 µM [rising, single point] |
| c1cncc(CNc2ncnc3sccc23)c1 | – | 11.2 µM [falling, single point] |
| COc1ccc([N+](=O)[O-])cc1NC(=O)CSc1ncccn1 | 6.31 µM [falling, full curve, poor fit] | 5.62 µM [falling, partial curve, poor fit] |
| COc1ccccc1-c1nc(C#N)c(N2CCN(c3ccccc3)CC2)o1 | – | 20 µM [rising, partial curve, poor fit] |
| CCCN=Cc1ccc(O)cc1 | 8.91 µM [falling, partial curve, poor fit] | – |
| O=C(CNS(=O)(=O)c1ccccc1)Nc1ccc2c(c1)OCO2 | 0.0794 µM [rising, full curve, poor fit] | – |
| COCCNC(=O)c1ccc2nc(CCc3ccccc3)oc2c1 | 0.1 µM [rising, full curve, poor fit] | – |
| COc1ccccc1-c1cc(C(=O)N/N=C/c2cccs2)c2ccccc2n1 | – | 11.2 µM [rising, partial curve] |
| CC(C)(C)n1nnnc1C(c1ccc(Cl)cc1)N(Cc1cccnc1)Cc1ccco1 (stereo not given) | 17.8 µM [rising, single point] | 31.6 µM [rising, single point] |
| COc1ccc(NC(=O)c2oc3ccc(S(=O)(=O)N(C)C4CCCCC4)cc3c2C)cc1Cl | 8.91 µM [falling, full curve, poor fit] | – |
| CCc1nnc(NC(=O)c2ccc(S(=O)(=O)NC3CCCCC3)cc2)s1 | – | 4.47 µM [rising, full curve] |
| CCOc1ccc2nc(NS(=O)(=O)Cc3ccccc3)sc2c1 | 0.501 µM [falling, full curve, poor fit] | – |
| O=[N+]([O-])c1nn(-c2ccc3c(c2)OCCO3)n(O)c1=NC1CCCCC1 | 28.2 µM [rising, single point] | 15.8 µM [rising, single point] |
| COC(=O)/C=C1/C(=O)N/C(=N\c2nc(C)cc(C)n2)N1c1ccc(OC)cc1 | – | 7.94 µM [rising, partial curve] |
| CCCCNc1nc2c(c(=O)n(C)c(=O)n2C)n1Cc1cccc(OC)c1 | 3.55 µM [rising, full curve] | 7.94 µM [rising, partial curve] |
| COc1ccc(N2CCN(C(=O)CN(Cc3ccc(Cl)cc3)S(C)(=O)=O)CC2)cc1 | – | 35.5 µM [rising, single point] |
| Cc1ccccc1Nc1nc(N)nc(CSc2nc3ccccc3s2)n1 | 11.2 µM [rising, single point] | 12.6 µM [rising, partial curve, poor fit] |

Taken from the results shown, three compounds:

| Structure (SMILES) | AC50 [1] | AC50 [2] |
| --- | --- | --- |
| COC(=O)/C=C1/C(=O)N/C(=N\c2nc(C)cc(C)n2)N1c1ccc(OC)cc1 | – | 7.94 µM [rising, partial curve] |
| CCCCNc1nc2c(c(=O)n(C)c(=O)n2C)n1Cc1cccc(OC)c1 | 3.55 µM [rising, full curve] | 7.94 µM [rising, partial curve] |
| COc1ccc(N2CCN(C(=O)CN(Cc3ccc(Cl)cc3)S(C)(=O)=O)CC2)cc1 | – | 35.5 µM [rising, single point] |
